PubChem BioAssay AID504764 – Drosophila RNAi Screening Center – 2011
Screen: 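Genome-wide screen for regulators of Notch-driven gene expression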 (primary screen). Cell system: Drosophila Kc167 cells. Reagents: long dsRNA against Drosophila genes. Time to read-out: about 5 days (4 days dsRNA, then 24 h after transfection). Conditions: transfection of constitutively active membrane-tethered Notch lacking the extracellular domain, read 24 h later. Measurement: 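Firefly luciferase from an E(spl)m3 reporter with active Notch, plus control-promoter and uninduced reporter wells for normalisation; unnormalised counts, duplicate wells a and b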. Scale: induced reporter light, run 1, well a and induced reporter light, run 1, well b: higher = more light from the Notch target reporter with active Notch; control promoter light, run 1, well a and control promoter light, run 1, well b: higher = more light from the viral control promoter (cell number, transfection, viability); uninduced reporter light, run 1, well a: higher = more light from the Notch target reporter without active Notch. Hit rule: 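Hit if the duplicate-averaged log2 ratio of induced to control-promoter light gives a plate-wise z beyond ±2, or induced to uninduced beyond ±1.8; weak-control or discordant-duplicate wells dropped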. Calls: active = modifier hit (raised or lowered Notch signal); inactive = not a hit.
In all, the deposit lists about 22,000 reagents; this is a random part of those that have a named target and a result. Of all reagents, 403 (1.9%) were called active. 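Unnormalised raw counts per well; ratio z-scores behind the hit calls and whether each hit raises or lowers signal are not deposited.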 Reagents against one gene are numbered here. A plus sign joins genes that one reagent is predicted to hit. Not stated in the record: the amount of reagent.

edin → induced reporter light, run 1, well a = 2.02e5; induced reporter light, run 1, well b = 1.79e5; control promoter light, run 1, well a = 2.77e5; control promoter light, run 1, well b = 1.98e5; uninduced reporter light, run 1, well a = 16640; call = inactive
CG11807 → induced reporter light, run 1, well a = 60330; induced reporter light, run 1, well b = 1.17e5; control promoter light, run 1, well a = 1.56e5; control promoter light, run 1, well b = 2.50e5; uninduced reporter light, run 1, well a = 11460; call = inactive
Art3 → induced reporter light, run 1, well a = 1.41e5; induced reporter light, run 1, well b = 1.64e5; control promoter light, run 1, well a = 91270; control promoter light, run 1, well b = 94910; uninduced reporter light, run 1, well a = 10742; call = inactive
Mink → induced reporter light, run 1, well a = 1.33e5; induced reporter light, run 1, well b = 1.31e5; control promoter light, run 1, well a = 1.88e5; control promoter light, run 1, well b = 1.88e5; uninduced reporter light, run 1, well a = 13180; call = inactive
CG3702 → induced reporter light, run 1, well a = 74555; induced reporter light, run 1, well b = 82315; control promoter light, run 1, well a = 51860; control promoter light, run 1, well b = 66590; uninduced reporter light, run 1, well a = 4840; call = active
flip → induced reporter light, run 1, well a = 65095; induced reporter light, run 1, well b = 50650; control promoter light, run 1, well a = 47700; control promoter light, run 1, well b = 33485; uninduced reporter light, run 1, well a = 4085; call = inactive
Inx5 → induced reporter light, run 1, well a = 1.05e5; induced reporter light, run 1, well b = 99975; control promoter light, run 1, well a = 1.30e5; control promoter light, run 1, well b = 1.52e5; uninduced reporter light, run 1, well a = 13880; call = inactive
wds → induced reporter light, run 1, well a = 93315; induced reporter light, run 1, well b = 1.04e5; control promoter light, run 1, well a = 1.08e5; control promoter light, run 1, well b = 1.14e5; uninduced reporter light, run 1, well a = 7375; call = inactive
snoRNA:Me28S-C3420b + RpS11 → induced reporter light, run 1, well a = 1.05e5; induced reporter light, run 1, well b = 1.12e5; control promoter light, run 1, well a = 1.78e5; control promoter light, run 1, well b = 1.48e5; uninduced reporter light, run 1, well a = 10690; call = inactive
Lar #1 → induced reporter light, run 1, well a = 82320; induced reporter light, run 1, well b = 60695; control promoter light, run 1, well a = 79490; control promoter light, run 1, well b = 65640; uninduced reporter light, run 1, well a = 5870; call = inactive
Lar #2 → induced reporter light, run 1, well a = 2.06e5; induced reporter light, run 1, well b = 2.12e5; control promoter light, run 1, well a = 1.81e5; control promoter light, run 1, well b = 1.98e5; uninduced reporter light, run 1, well a = 15510; call = inactive
CG13000 → induced reporter light, run 1, well a = 49885; induced reporter light, run 1, well b = 47455; control promoter light, run 1, well a = 47300; control promoter light, run 1, well b = 41080; uninduced reporter light, run 1, well a = 7565; call = inactive
CG5347 → induced reporter light, run 1, well a = 92165; induced reporter light, run 1, well b = 78555; control promoter light, run 1, well a = 1.10e5; control promoter light, run 1, well b = 1.04e5; uninduced reporter light, run 1, well a = 13615; call = inactive
Efa6 #1 → induced reporter light, run 1, well a = 57320; induced reporter light, run 1, well b = 46080; control promoter light, run 1, well a = 83170; control promoter light, run 1, well b = 66915; uninduced reporter light, run 1, well a = 7305; call = inactive
Efa6 #2 → induced reporter light, run 1, well a = 60795; induced reporter light, run 1, well b = 48000; control promoter light, run 1, well a = 20180; control promoter light, run 1, well b = 20255; uninduced reporter light, run 1, well a = 9495; call = inactive
Efa6 #3 → induced reporter light, run 1, well a = 2.04e5; induced reporter light, run 1, well b = 1.89e5; control promoter light, run 1, well a = 1.96e5; control promoter light, run 1, well b = 1.52e5; uninduced reporter light, run 1, well a = 11220; call = inactive
Cep164 → induced reporter light, run 1, well a = 71590; induced reporter light, run 1, well b = 69685; control promoter light, run 1, well a = 98085; control promoter light, run 1, well b = 73425; uninduced reporter light, run 1, well a = 12075; call = inactive
CG8852 → induced reporter light, run 1, well a = 1.66e5; induced reporter light, run 1, well b = 1.30e5; control promoter light, run 1, well a = 1.79e5; control promoter light, run 1, well b = 1.64e5; uninduced reporter light, run 1, well a = 10155; call = inactive
CG15756 → induced reporter light, run 1, well a = 77405; induced reporter light, run 1, well b = 71910; control promoter light, run 1, well a = 1.17e5; control promoter light, run 1, well b = 1.18e5; uninduced reporter light, run 1, well a = 5235; call = inactive
CG1773 → induced reporter light, run 1, well a = 1.55e5; induced reporter light, run 1, well b = 1.75e5; control promoter light, run 1, well a = 1.35e5; control promoter light, run 1, well b = 1.48e5; uninduced reporter light, run 1, well a = 13270; call = inactive
CG3301 → induced reporter light, run 1, well a = 235; induced reporter light, run 1, well b = 125; control promoter light, run 1, well a = 265; control promoter light, run 1, well b = 235; uninduced reporter light, run 1, well a = 50; call = inactive
Dop2R #1 → induced reporter light, run 1, well a = 80225; induced reporter light, run 1, well b = 99735; control promoter light, run 1, well a = 1.08e5; control promoter light, run 1, well b = 1.28e5; uninduced reporter light, run 1, well a = 9200; call = inactive
Dop2R #2 → induced reporter light, run 1, well a = 1.04e5; induced reporter light, run 1, well b = 85940; control promoter light, run 1, well a = 93605; control promoter light, run 1, well b = 97405; uninduced reporter light, run 1, well a = 10665; call = inactive
CG18631 (retired record) → induced reporter light, run 1, well a = 44685; induced reporter light, run 1, well b = 39235; control promoter light, run 1, well a = 42445; control promoter light, run 1, well b = 45940; uninduced reporter light, run 1, well a = 4295; call = inactive

Active calls, of those listed so far:
CG3702 → induced reporter light, run 1, well a = 74555; induced reporter light, run 1, well b = 82315; control promoter light, run 1, well a = 51860; control promoter light, run 1, well b = 66590; uninduced reporter light, run 1, well a = 4840; call = active
